At least one peptide structure holds a part that was inferred or is arguable (an end, a ring closure or a residue). Some entries repeat one wording, which the source may state once for all of them. Residues, ends and D or L forms follow the SMILES beside them.
Columns and labels:
[1] = test system: A431 breast carcinoma cells; assay: Cell adhesion assay, A431 breast carcinoma cells; assay type: cell-based; conditions: peptide-coated wells; BSA background subtracted; FIG. 20
[2] = Heparin binding assay: peptide incubated with 3H-heparin in solution, nitrocellulose-coated wells; conditions: peptide 2 mg/ml to 1 μg/ml, two hours at 37° C.; FIG. 7
[3] = Heparin binding assay: 3H-heparin binding to peptides coated on 96-well plastic plates; conditions: peptide 2 mg/ml to 1 μg/ml coated; background BSA; FIG. 8-9
[4] = test system: MM fibrosarcoma cells (uv-2237-MM); assay: Cell adhesion assay, MM fibrosarcoma cells; assay type: cell-based, Murine; conditions: peptide-coated wells; BSA background subtracted; FIG. 18
type IV collagen [5] = biological target: T1, type IV collagen (Mus musculus, UniProt P02463+P08122); assay: Liquid phase collagen binding assay: type IV collagen network formation by rotary shadowing electron microscopy; set-up: species or system murine; conditions: prewarmed intact type IV collagen; fields with irregular polygonal networks counted; FIG. 3A, 3B
T1 construct: Type IV collagen was coated onto a plastic surface; from tissue

Sequences of proteins named here, by UniProt entry; tags and fusion partners are left off. Residues count along the entry.
UniProt P02463, 173-1669: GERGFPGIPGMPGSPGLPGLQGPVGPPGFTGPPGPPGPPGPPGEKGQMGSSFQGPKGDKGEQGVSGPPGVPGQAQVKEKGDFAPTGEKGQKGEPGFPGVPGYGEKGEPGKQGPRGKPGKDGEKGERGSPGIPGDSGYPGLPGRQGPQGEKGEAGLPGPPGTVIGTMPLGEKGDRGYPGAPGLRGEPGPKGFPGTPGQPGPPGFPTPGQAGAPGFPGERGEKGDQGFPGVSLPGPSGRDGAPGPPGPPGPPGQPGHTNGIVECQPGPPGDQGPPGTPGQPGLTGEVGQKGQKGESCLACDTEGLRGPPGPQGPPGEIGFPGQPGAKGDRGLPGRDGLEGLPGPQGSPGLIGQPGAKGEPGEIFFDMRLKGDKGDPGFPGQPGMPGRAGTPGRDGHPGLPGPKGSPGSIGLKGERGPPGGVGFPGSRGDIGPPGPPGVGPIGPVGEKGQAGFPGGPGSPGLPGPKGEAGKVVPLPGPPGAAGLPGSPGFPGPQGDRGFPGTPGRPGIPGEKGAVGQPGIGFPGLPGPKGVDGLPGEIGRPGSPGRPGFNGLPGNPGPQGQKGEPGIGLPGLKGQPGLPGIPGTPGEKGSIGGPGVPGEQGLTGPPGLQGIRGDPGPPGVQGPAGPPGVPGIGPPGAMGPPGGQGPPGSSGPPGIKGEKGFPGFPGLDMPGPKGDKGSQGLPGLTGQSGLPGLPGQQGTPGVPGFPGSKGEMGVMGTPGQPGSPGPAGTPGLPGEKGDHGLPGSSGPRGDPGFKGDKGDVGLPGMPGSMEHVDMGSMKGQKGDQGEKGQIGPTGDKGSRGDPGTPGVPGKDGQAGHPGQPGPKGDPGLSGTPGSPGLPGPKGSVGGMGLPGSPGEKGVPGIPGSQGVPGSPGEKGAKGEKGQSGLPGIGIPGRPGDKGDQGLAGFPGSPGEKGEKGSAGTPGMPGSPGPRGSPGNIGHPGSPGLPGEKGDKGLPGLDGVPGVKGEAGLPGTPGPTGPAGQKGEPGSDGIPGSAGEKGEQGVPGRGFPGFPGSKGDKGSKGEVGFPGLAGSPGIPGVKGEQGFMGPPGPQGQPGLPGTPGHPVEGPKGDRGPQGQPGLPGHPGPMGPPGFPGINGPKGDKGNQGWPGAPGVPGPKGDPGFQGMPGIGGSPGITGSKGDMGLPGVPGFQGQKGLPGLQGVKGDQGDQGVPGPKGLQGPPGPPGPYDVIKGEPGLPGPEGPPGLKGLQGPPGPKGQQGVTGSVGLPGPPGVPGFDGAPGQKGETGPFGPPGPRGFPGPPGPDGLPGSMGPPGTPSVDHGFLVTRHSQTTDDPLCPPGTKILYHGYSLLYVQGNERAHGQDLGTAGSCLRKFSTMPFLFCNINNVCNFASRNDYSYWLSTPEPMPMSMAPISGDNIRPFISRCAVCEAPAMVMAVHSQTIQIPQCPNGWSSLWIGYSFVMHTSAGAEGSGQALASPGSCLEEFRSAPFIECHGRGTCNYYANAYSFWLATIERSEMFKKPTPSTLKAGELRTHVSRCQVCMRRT
UniProt P08122, 184-1707: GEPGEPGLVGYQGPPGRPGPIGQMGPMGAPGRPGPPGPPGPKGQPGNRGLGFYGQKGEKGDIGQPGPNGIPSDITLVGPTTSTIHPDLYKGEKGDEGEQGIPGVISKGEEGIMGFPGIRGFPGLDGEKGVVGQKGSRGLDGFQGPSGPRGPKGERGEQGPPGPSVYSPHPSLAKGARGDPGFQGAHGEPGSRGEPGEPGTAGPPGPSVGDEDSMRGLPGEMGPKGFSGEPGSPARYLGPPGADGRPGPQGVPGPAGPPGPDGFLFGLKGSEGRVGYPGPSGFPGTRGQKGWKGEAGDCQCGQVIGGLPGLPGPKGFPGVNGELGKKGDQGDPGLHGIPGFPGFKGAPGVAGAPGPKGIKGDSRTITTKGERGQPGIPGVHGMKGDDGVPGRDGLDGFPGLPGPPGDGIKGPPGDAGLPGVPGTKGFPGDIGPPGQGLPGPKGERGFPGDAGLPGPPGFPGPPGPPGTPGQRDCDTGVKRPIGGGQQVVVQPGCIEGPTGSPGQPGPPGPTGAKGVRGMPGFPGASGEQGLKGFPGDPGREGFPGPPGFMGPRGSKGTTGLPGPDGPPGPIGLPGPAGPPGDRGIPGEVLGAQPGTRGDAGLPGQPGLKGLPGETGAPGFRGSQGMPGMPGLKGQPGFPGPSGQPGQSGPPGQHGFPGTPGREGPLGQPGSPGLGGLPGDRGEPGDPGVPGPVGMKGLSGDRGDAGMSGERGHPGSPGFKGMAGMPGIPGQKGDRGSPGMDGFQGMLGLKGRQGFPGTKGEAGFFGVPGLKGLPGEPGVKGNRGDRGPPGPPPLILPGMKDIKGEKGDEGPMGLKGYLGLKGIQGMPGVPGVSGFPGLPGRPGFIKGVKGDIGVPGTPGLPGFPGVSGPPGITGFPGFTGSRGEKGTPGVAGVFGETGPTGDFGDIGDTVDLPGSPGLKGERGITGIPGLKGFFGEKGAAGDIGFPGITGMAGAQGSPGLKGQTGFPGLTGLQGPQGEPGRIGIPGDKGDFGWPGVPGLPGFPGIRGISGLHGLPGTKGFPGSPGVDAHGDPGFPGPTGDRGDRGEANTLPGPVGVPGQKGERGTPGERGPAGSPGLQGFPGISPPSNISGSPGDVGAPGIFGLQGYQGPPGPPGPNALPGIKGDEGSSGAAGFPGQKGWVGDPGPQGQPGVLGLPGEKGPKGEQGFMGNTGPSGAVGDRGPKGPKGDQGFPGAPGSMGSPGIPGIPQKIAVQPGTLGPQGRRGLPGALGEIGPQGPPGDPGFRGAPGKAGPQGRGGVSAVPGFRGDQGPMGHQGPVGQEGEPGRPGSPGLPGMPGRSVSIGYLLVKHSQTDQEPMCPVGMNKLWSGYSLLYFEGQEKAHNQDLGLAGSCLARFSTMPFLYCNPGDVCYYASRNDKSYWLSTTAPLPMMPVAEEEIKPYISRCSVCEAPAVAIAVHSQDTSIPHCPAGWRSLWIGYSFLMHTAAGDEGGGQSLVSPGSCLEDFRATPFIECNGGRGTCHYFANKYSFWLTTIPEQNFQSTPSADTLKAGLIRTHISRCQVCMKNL

[6] = test system: binding of 3H-heparin to type IV collagen; assay: Inhibition of 3H-heparin binding to type IV collagen coated on plastic by peptides in solution; conditions: for interaction with heparin in the inhibition assay: peptides 2 mg/ml to 1 μg/ml, FIG. 14; for inhibition of the binding of 3H-heparin to collagen: at the highest concentration tested, FIG. 14B, 14C
M4 melanoma cells = assay: Cell adhesion assay, metastatic melanoma K1735M4 cells; assay type: cell-based, murine; conditions: peptide-coated wells; BSA background subtracted; FIG. 16
type IV collagen [7] = biological target: T1, type IV collagen; assay: Solid phase collagen binding assay: 125I-NCl domain binding to type IV collagen coated on plastic; set-up: species or system murine; conditions: for effect of peptide on binding of 125I-NCl to type IV collagen: peptide added to solutions of 125I-NCl, FIG. 6
normal rat fibroblasts = assay: Cell adhesion assay, normal rat fibroblasts; assay type: cell-based; conditions: peptide-coated wells; BSA background subtracted; FIG. 17
aortic endothelial cells = assay: Cell adhesion assay, aortic endothelial cells; assay type: cell-based, bovine; conditions: peptide-coated wells, 90 min; BSA background subtracted; FIG. 15
C6 glioma cells = assay: Cell adhesion assay, C6 glioma cells; assay type: cell-based, Rat; conditions: peptide-coated wells; BSA background subtracted; FIG. 19

Row | Compound | adhesion of A431 breast carcinoma cells [1] | binding of 3H-heparin to peptide [2] | binding of 3H-heparin to peptide coated on plastic [3] | adhesion of MM fibrosarcoma cells [4] | effect on type IV collagen network formation (assembly) (type IV collagen [5]) | interaction with heparin in the inhibition assay [6] | adhesion of M4 cells (M4 melanoma cells) | binding of peptide to type IV collagen and NCl domain (type IV collagen [7]; concluded from FIG. 6) | effect of peptide on binding of 125I-NCl to type IV collagen (type IV collagen [7]) | adhesion of normal rat fibroblasts (normal rat fibroblasts) | adhesion of aortic endothelial cells (aortic endothelial cells) | adhesion of C6 glioma cells (C6 glioma cells) | inhibition of the binding of 3H-heparin to collagen [6]
1 | CSCC[C@H](N)C(=O)N[C@@H](Cc1ccccc1)C(=O)N[C@@H](CCCCN)C(=O)N[C@@H](CCCCN)C(=O)N1CCC[C@H]1C(=O)N[C@H](C(=O)N1CCC[C@H]1C(=O)N[C@@H](CO)C(=O)N[C@H](C(=O)N[C@@H](CC(C)C)C(=O)N[C@@H](CCCCN)C(=O)N[C@@H](C)C(=O)NCC(=O)N[C@@H](CCC(=O)O)C(=O)N[C@@H](CC(C)C)C(=O)N[C@@H](CCCNC(=N)N)C(=O)O)[C@@H](C)O)[C@@H](C)O [TS-1, met-phe-lys-lys-pro-thr-pro-ser-thr-leu-lys-ala-gly-glu-leu-arg] (H-MFKKPTPSTLKAGELR-OH) | promotes adhesion | does not interact with heparin | does not bind heparin above background | promotes adhesion | do not have any effect | does not interact with heparin |  |  |  |  |  |  | 
2 | CSCC[C@H](NC(=O)[C@@H](NC(=O)[C@H](CO)NC(=O)[C@H](Cc1ccccc1)NC(=O)[C@H](CCCCN)NC(=O)[C@H](CCCNC(=N)N)NC(=O)[C@H](CC(C)C)NC(=O)[C@H](CS)NC(=O)[C@H](CO)NC(=O)CNC(=O)[C@H](C)NC(=O)[C@@H](N)[C@@H](C)O)[C@@H](C)O)C(=O)O [TS-2, thr-ala-gly-ser-cys-leu-arg-lys-phe-ser-thr-met] (H-TAGSCLRKFSTM-OH) | promotes adhesion | bind to heparin (TS-2 to a greater extent than TS-3) | binds heparin strongly | promotes adhesion | can effectively prevent network formation | bound to heparin with higher affinity | promote adhesion | can bind to type IV collagen and also to the isolated NCl domain | dramatic increase | promoted adhesion of rat fibroblasts to a minimal extent | followed by peptides TS-2 and TS-3, respectively | promoted adhesion | about 43%
3 | CC[C@H](C)[C@H](NC(=O)[C@H](CCCCN)NC(=O)[C@@H](NC(=O)CNC(=O)[C@@H]1CCCN1C(=O)[C@@H]1CCCN1C(=O)[C@H](CS)NC(=O)[C@H](CC(C)C)NC(=O)[C@@H]1CCCN1C(=O)[C@@H](N)CC(N)=O)[C@@H](C)O)C(=O)N[C@@H](CC(C)C)C(=O)O [TS-3, asn-pro-leu-cys-pro-pro-gly-thr-lys-ile-leu] (H-NPLCPPGTKIL-OH) | promotes adhesion | bind to heparin | also binds heparin, but less extensively | promotes adhesion | do not have any effect |  | promote adhesion |  | did not have any effect | promoted adhesion of rat fibroblasts to a minimal extent | followed by peptides TS-2 and TS-3, respectively | promoted adhesion | about 43%

Source: patent US5242826A, “Polypeptides for adhering cells to a substrate” (Regents of the University of Minnesota, priority 1991, dated 1993)
